No constants are given. Whether binding was seen depends on the method and setting. Binding seen in cells or lysates may run through a third protein. Some entries that bind do so weakly or less than the wild type.
Biological target: mouse eNOS (endogenous, thoracodorsal arteries) (mouse) (UniProt P70313)
Experiment: proximity ligation assay and co-immunoprecipitation (IP Hb α, blot eNOS) from mouse thoracodorsal arteries

Amino acid sequences for entries named in this document (tags omitted). Residues count along the entry.
UniProt P70313, residues 2-1202: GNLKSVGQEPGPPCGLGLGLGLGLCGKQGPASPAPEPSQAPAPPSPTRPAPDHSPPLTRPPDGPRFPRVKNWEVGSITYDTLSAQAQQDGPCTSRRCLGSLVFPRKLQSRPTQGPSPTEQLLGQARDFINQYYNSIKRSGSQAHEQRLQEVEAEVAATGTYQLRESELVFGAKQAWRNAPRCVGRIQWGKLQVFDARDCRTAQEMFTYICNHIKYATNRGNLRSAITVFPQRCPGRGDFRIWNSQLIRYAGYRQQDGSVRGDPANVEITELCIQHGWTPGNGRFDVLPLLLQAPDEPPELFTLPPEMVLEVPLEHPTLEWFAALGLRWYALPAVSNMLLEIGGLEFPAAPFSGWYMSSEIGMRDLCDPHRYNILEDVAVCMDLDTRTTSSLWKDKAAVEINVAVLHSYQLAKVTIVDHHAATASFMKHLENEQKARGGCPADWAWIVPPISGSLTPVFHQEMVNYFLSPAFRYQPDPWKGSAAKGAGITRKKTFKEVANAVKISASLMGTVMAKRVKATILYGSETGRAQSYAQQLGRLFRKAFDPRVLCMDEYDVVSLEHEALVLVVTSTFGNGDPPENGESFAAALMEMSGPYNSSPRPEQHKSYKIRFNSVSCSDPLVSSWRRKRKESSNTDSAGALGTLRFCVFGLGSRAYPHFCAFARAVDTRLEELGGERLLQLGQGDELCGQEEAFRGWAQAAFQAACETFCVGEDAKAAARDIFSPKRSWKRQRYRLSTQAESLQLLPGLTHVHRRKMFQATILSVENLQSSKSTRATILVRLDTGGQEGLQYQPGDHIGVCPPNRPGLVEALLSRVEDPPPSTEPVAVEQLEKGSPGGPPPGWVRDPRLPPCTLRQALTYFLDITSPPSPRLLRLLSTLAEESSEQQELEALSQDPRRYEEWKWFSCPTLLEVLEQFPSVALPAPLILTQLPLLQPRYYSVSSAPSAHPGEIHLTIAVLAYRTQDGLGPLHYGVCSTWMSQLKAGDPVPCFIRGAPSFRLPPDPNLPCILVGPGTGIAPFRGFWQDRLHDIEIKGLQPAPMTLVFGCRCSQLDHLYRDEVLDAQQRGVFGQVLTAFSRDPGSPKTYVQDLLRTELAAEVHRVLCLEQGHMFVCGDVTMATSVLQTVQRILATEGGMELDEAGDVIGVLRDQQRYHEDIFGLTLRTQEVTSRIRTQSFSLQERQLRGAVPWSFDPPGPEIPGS
UniProt P01942, residues 2-142: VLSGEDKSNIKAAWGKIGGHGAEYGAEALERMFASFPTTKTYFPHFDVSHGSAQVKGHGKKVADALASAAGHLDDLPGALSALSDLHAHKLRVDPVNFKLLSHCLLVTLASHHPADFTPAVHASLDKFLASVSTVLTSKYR

mouse Hb α (endogenous, thoracodorsal arteries) (from UniProt P01942 2-142)
binding: binds
